These are yes or no findings as the source states them, for the method shown. Binding seen in cells or lysates may run through a third protein. Some entries that bind do so weakly or less than the wild type. Sequences can lack the tags named with a protein.
Target: T1, dAPPBP1-HA (Drosophila) (UniProt Q9VTE9)
T1 sequence: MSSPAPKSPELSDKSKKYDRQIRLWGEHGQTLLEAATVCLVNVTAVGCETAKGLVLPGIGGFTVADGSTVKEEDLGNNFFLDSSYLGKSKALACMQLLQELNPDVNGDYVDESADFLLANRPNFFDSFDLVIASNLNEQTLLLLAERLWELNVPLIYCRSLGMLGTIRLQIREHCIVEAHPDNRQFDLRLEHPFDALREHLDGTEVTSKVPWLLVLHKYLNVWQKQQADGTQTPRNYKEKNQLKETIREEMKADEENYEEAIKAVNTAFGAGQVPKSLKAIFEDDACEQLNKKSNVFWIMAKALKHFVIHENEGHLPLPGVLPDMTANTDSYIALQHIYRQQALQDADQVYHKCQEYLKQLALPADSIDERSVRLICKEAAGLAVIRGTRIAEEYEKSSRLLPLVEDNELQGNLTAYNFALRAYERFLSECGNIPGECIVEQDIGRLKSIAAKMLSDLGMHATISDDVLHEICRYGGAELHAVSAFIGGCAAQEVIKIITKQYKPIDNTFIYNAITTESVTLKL
Assay: co-IP; cl-8 cells transiently transfected with dAPPBP1-HA and CG13343-V5; lysed in NP-40 buffer (1% NP-40, 150 mM NaCl, 50 mM Tris-Cl, pH 8); anti-HA-conjugated agarose used to precipitate dAPPBP1-HA; 0.5% of lysate as input

B1: V5-tagged CG13343 (CG13343-V5) (enzyme, UniProt Q9V6U8 1-450)
chain: MSVHSPNPGLILQSKRFNGLRNILEREGPFCKDGFAASSENLEFLQTKCQVLIIGAGGLGCELLKDLALMGFGNLHVIDMDTIELSNLNRQFLFRRTDIGASKAECAARFINARVPTCRVTPHFKKIQDFDESFYQQFHLVVCGLDSIVARRWINGMLLSMLRYEEDGTIDTSSIVPMIDGGTEGFKGNARVILPGFTACIECTLDLFPPQVNYPLCTIANTPRLPEHCIEYVKIIQWEKQNPFGVPLDGDDPQHIGWIYERALERSNEFNITGVTYRLVQGVVKHIIPAVASTNAAIAAACALEVFKLATSCYDSMANYLNFNDLDGIYTYTYEAEKSENCLACSNTPQPLPIEDPNTTTLEDVIKLLCDSPRFQLKSPALTTVMKDGKRRTLYMSGVKSIEEATRKNLTQSLGELGLHDGQQLTVTDATSPSAMTLQLKYQSNEVEMV
- binding: binds

— article PMC3169580
